According to PubChem BioAssay AID662 (National Center for Advancing Translational Sciences (NCATS), 2007):
Where “and” joins values, the source holds several entries; their conditions need not be identical. Equal entries are not always repeated. This is one part of the list. These are further read-outs of the screen, such as a control signal, another cell line or another target. No call is given for them. Compounds called inactive in the main read-out are mostly missing here. The note in brackets gives the kind of curve behind each potency; many fits are weak.

Experiment: Cell signaling CRE-BLA (Fsk stim)
Details: CHO CRE-bla reporter (cAMP response element driving beta-lactamase), forskolin EC10, beta-lactamase ratio; measured here: 460 nm blue channel
Source text: NIH Molecular Libraries Screening Centers Network [MLSCN]
NIH Chemical Genomics Center [NCGC]
Assay Provider: Marshall W. Nirenberg, U.S. National heart lung & blood institute
Memories persist for different lengths of time, from seconds or minutes to a lifetime. There are two kinds of memory: short-term memory (STM) and long-term memory (LTM). STM lasts for minutes to hours, which maybe mediated by modifications of molecules involved in synaptic functions. LTM lasts for days or longer, and may be due to the formation of new synapses or restructuring of existing synapses. LTM, but not STM, requires gene transcription and synthesis of proteins. CREB (cyclic-AMP Responsive Element Binding Protein) is one of the candidates plays an important role for enhancement of some types of LTM. CREB, a family of transcription factors, regulates the transcription of genes containing cAMP Responsive Elements (CRE). CRE is a nucleotide sequence often found in the promoter regions of genes that are binding sites for CREB.
Using a beta-lactamase reporter-gene under control of cAMP responsive element, a cell-based assay [CellSensor(TM) CRE-bla CHO developed by Invitrogen Corp.] was used to measure forskolin-induced signaling. Library compounds were measured for their ability to modulate positively or negatively the action of EC10 NKH 477, a water soluble forskolin, on reporter gene activity. Compounds were screened in a titration series in 1536-well format. Positive and negative modulators were identified based on the AC50 values derived from the screening data.
NCGC Assay Protocol Summary
2000 cells/5uL in Opti-MEM medium containing 0.5% dialyzed FBS, 0.1 mM NEAA, 1 mM sodium pyruvate and 10 mM HEPES was dispensed into 1536-well plates and cells were cultured at 37 degrees Celsius overnight. […] And then the plates were incubated at 37 degrees Celsius for 3 hours. 1 uL of CCF4-dye mixture was added to each well. After incubated at room temperature for 2 hours the plates were measured on an EnVision plate reader at Excitation 405nm, Emission1=460nm and Emission 2=530nm. The %Activity was determined from the ratio of 460nm/530nm.
Keywords: NIH Roadmap, MLSCN, MLSMR, qHTS, NCGC, CRE, beta-lactamase reporter-gene assay.

Row | Compound | AC50
1 | COC(=O)c1c(NC(=O)c2cccs2)sc2c1CCCC2 | 15.8 µM [rising, single point]
2 | COc1ccc(Cc2nnc(NC(=O)c3cccs3)s2)cc1 | 5.01 µM [rising, full curve]
3 | COCCCNC(=O)CS(=O)Cc1nc(-c2cccc(OC)c2)oc1C (configuration not stated) | 0.00316 µM [falling, full curve, poor fit]
4 | CCCn1c(OC)nc2c1c(=O)n(C)c(=O)n2C | 3.98 µM [rising, full curve, poor fit]
5 | Cn1c(=O)oc2cc(S(=O)(=O)NC3CCCCCCC3)ccc21 | 25.1 µM [rising, single point]
6 | COC(=O)C1=C(N)Oc2cc(N(C)C)ccc2C1c1ccccc1OC (configuration not stated) | 10 µM [rising, partial curve]
7 | COCCNC(=O)C(c1ccc(C)o1)N(CC1CCCO1)C(=O)Cn1nnc2ccccc21 (configuration not stated) | 0.126 µM [falling, partial curve, poor fit]
8 | N=c1c(C(=O)NCc2ccc(F)cc2)cc2c(=O)n3ccccc3nc2n1CC1CCCO1 (configuration not stated) | 2.51 µM [rising, full curve]
9 | COc1cc2c(cc1O)CC[C@@H]1[C@@H]2CC[C@@]2(C)[C@H](O)CC[C@H]12 | 12.6 µM [rising, single point]
10 | CN1CCN(c2ncc3nc(-c4ccccc4)c(=O)n(-c4ccccc4)c3n2)CC1 | 10 µM [rising, partial curve]
11 | Cc1cc(N2CCN(C)CC2)nc2ccc(NC(=O)CCC(=O)NCCC3=CCCCC3)cc12 | 20 µM [falling, single point]
12 | COc1ccc(-c2oc3cc(OC)c(OC(C)=O)c(OC)c3c(=O)c2OC)cc1OC(C)=O | 0.251 µM [rising, full curve, poor fit]
13 | Cc1c(C(=O)NCCCN2CCCC2=O)oc2ccccc12 | 12.6 µM [falling, partial curve]
14 | Cc1cc(NC(=O)c2cccc(C(=O)Nc3cc(C)on3)n2)no1 | 20 µM [rising, partial curve, poor fit]
15 | CCOc1ccccc1Nc1nnc(SCc2ccc(C(=O)OC)o2)s1 | 12.6 µM [rising, partial curve]
16 | CSc1ccccc1NC(=O)c1cnc2scc(C)n2c1=O | 7.94 µM [rising, partial curve]
17 | Cc1ccc(-n2c(Cc3cccn3C)nnc2SCC(=O)Nc2ccc3c(c2)OCO3)cc1 | 7.94 µM [falling, partial curve]
18 | CC(C)c1ccc2oc(-c3ccc(NC(=O)c4ncn[nH]4)cc3)nc2c1 | 6.31 µM [falling, partial curve]
19 | O=C(Nc1ccon1)c1cc(-c2ccccc2)nc2ccccc12 | 10 µM [rising, single point]
20 | Cc1cc2c(C(C)C)c(O)c(O)c(C=O)c2c(O)c1-c1c(C)cc2c(C(C)C)c(O)c(O)c(C=O)c2c1O | 10 µM [falling, single point] and 15.8 µM [falling, single point]
21 | COc1ccc2nc(NCc3ccccc3)[nH]c2c1 | 12.6 µM [falling, single point]
22 | COc1ccc2c(=O)cc(-c3ccccc3)oc2c1O | 15.8 µM [rising, partial curve]
23 | O=C(Nc1ccn(Cc2ccc(F)cc2)n1)c1ccncc1 | 0.2 µM [falling, full curve]

Row | Compound | AC50
24 | COCCNc1nc(C)nc2c1nc(-c1ccccc1)n2CCN1CCCCC1 | 10 µM [rising, single point]
25 | Cc1cccc2c(=O)c(C(=O)N3CCCCCC3)c[nH]c12 | 2 µM [rising, partial curve]
26 | Cc1cc(C)nc(N2CCN(c3nnnn3-c3ccccc3)CC2)n1 | 0.00316 µM [falling, full curve, poor fit]
27 | CCn1c(=O)c2c(nc3n2CC(C)CN3CCc2ccccc2)n(C)c1=O (configuration not stated) | 5.01 µM [rising, full curve]
28 | O=C(c1cccc(Cl)c1)N1CCN(c2ccccn2)CC1 | 2.51 µM [falling, partial curve]
29 | CC(=O)NCCNc1nc(-c2ccc(C(=O)N(C)C)cc2)nc2ccccc12 | 12.6 µM [rising, partial curve]
30 | COc1ccc(C(=O)Nc2cccc(C(=O)N3CCN(C)CC3)c2)cc1 | 25.1 µM [rising, single point]
31 | COc1ccc(/C=N/n2cnnc2SCc2ccc(OC)cc2)cc1 | 10 µM [rising, single point]
32 | Cc1oc2nc(SCC(=O)NC3CCCCC3)nc(N)c2c1C | 10 µM [rising, partial curve]
33 | COC(=O)[C@@]1(Cc2ccccc2)[C@H]2c3cc(C(=O)N4CCCC4)n(Cc4ccc(OC)c(OC)c4)c3C[C@H]2CN1C(=O)c1ccccc1 | 0.251 µM [rising, partial curve]
34 | Cn1cc(/C=N/n2cnc3scc(-c4ccc(Cl)cc4)c3c2=O)c2ccccc21 | 0.501 µM [rising, full curve]
35 | CC(=O)Nc1ccc(-c2nn[nH]n2)cc1Cl | 25.1 µM [falling, single point]
36 | COc1ccc(C(C)=O)cc1COC(=O)Cn1cnc2ccccc2c1=O | 25.1 µM [rising, single point]
37 | CCNc1ncc2nc(-c3cccs3)c(=O)n(CCc3ccccc3)c2n1 | 1.26 µM [rising, full curve]
38 | C#CCOC(=O)c1ccccc1C(=O)n1nnc2ccccc21 | 0.398 µM [falling, partial curve]
39 | O=c1c(-c2cc(F)cc(F)c2)nc2cnc(N3CCOCC3)nc2n1Cc1ccc(F)cc1 | 12.6 µM [rising, partial curve]
40 | COC(=O)c1c(NC(=O)Cc2cccs2)sc(C(=O)N2CCCCC2)c1C | 0.631 µM [rising, full curve, poor fit]
41 | COc1ccc2c(C)cc(=O)oc2c1C | 10 µM [rising, single point]
42 | Cc1c(C#N)sc2nc(-c3ccccc3)nc(N3CCCC3)c12 | 1 µM [rising, single point]
43 | CCOC(=O)C1CCCN(c2c(NCCCN(CC)c3cccc(C)c3)c(=O)c2=O)C1 (configuration not stated) | 2.51 µM [rising, single point]
44 | O=C(O)CSCC(=O)c1ccccc1 | 0.501 µM [rising, partial curve]
45 | CC1Cc2nc(SCC(=O)Nc3ccc4c(c3)OCO4)n(CCc3ccccc3)c(=O)c2S1 (configuration not stated) | 7.94 µM [rising, partial curve]
46 | COc1ccc(Nc2ccccc2)c(C)c1 | 12.6 µM [rising, single point]

Structures listed so far that contain a Cl atom (3):
Row | Compound | AC50
28 | O=C(c1cccc(Cl)c1)N1CCN(c2ccccn2)CC1 | 2.51 µM [falling, partial curve]
34 | Cn1cc(/C=N/n2cnc3scc(-c4ccc(Cl)cc4)c3c2=O)c2ccccc21 | 0.501 µM [rising, full curve]
35 | CC(=O)Nc1ccc(-c2nn[nH]n2)cc1Cl | 25.1 µM [falling, single point]

Next entries follow:

Row | Compound | AC50
47 | COc1ccc(-n2c(=O)c(-c3cn(C)c4ccccc34)nc3cnc(N4CCNCC4)nc32)cc1 | 7.94 µM [rising, partial curve]
48 | CCN(CC)C(=O)CSc1nc(C)cc(-c2cccs2)c1C#N | 12.6 µM [rising, partial curve]
49 | Cc1cc2cc(CN(Cc3ccc4c(c3)OCO4)C(=O)c3cnccn3)c3nnnn3c2cc1C | 25.1 µM [falling, single point]
50 | COC(=O)C1=C(C)N=c2s/c(=C3\C(=O)Nc4ccccc43)c(=O)n2C1c1ccccc1 (configuration not stated) | 2 µM [rising, partial curve]
51 | COC(=O)C1=C(C)Nc2ncnn2C1c1ccccn1 (configuration not stated) | 5.01 µM [rising, single point]
52 | CN(C)c1ccnc(-c2cccc(NS(C)(=O)=O)c2)n1 | 12.6 µM [rising, partial curve]
53 | O=C(Cc1cc(=O)[nH]c(=O)[nH]1)NCC1CCCO1 (configuration not stated) | 3.16 µM [falling, single point]
54 | CN(CCc1ccccn1)S(=O)(=O)c1ccc2c3c(cccc13)C(=O)N2 | 10 µM [rising, partial curve]
55 | CCc1ccccc1NC(=O)Cn1nnc(-c2cccs2)n1 | 3.98 µM [falling, single point]
56 | CN(C)CCCn1c2c3ccccc3ccc2c2oc(=O)c3ccccc3c21 | 3.16 µM [rising, single point]
57 | O=c1c(-c2cc(F)cc(F)c2)nc2cnc(N3CCOCC3)nc2n1C[C@H]1CCCO1 | 15.8 µM [rising, partial curve]
58 | N#C/C(=C\c1ccc(O)c(O)c1)C(=O)NCc1ccccc1 | 31.6 µM [rising, single point]
59 | O=C(COc1ccccc1)n1nc(-c2ccc(Cl)cc2)nc1NCc1ccco1 | 20 µM [rising, single point]
60 | CCN1C(=O)/C(=C2/C=CC=CN2C)OC1=S | 0.251 µM [rising, full curve]
61 | O=C(NCC(c1cccnc1)N1CCN(c2ccccc2F)CC1)c1ccccc1 (configuration not stated) | 12.6 µM [rising, single point]
62 | Cc1ccc(S(=O)(=O)N2CCCC2C(=O)NCc2ccco2)cc1 (configuration not stated) | 20 µM [rising, single point]
63 | COCCn1c(=O)c(C)nc2cnc(Oc3ccccc3)nc21 | 10 µM [rising, partial curve]
64 | COc1ncc2nc(-c3ccc(Cl)cc3)c(=O)n(C[C@H]3CCCO3)c2n1 | 12.6 µM [rising, partial curve]
65 | COC(=O)c1ccccc1NS(=O)(=O)c1ccc2c3c(cccc13)C(=O)N2 | 10 µM [rising, partial curve]
66 | COc1cc2c(cc1OC)C(COc1ccc(F)cc1)N(C(=O)c1ccco1)CC2 (configuration not stated) | 10 µM [rising, partial curve]
67 | C=C(C)CSc1nnc(-c2cc(OC)c(OC)c(OC)c2)n1N | 10 µM [rising, partial curve]
